Data reported in PMC10887216.
These are yes or no findings as the source states them, for the method shown.

Amino acid sequences for entries named in this document (tags omitted). A change or cut given only in a name is not applied to a line headed by its entry. Residues count along the entry.
UniProt P02769, residues 25-607: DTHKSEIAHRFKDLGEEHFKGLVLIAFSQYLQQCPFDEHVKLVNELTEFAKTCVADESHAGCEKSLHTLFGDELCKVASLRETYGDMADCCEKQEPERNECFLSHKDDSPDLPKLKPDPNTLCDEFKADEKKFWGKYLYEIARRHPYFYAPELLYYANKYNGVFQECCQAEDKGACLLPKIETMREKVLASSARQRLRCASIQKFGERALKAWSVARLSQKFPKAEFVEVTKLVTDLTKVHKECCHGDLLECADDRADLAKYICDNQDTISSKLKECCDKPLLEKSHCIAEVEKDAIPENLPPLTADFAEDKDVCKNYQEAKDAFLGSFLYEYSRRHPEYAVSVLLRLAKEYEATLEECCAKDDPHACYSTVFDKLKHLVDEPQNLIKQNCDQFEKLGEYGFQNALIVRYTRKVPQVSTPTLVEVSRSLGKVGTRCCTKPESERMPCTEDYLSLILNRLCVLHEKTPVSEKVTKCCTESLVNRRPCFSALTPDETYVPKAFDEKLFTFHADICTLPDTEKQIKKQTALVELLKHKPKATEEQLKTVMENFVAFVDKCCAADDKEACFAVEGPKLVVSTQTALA
UniProt P06756: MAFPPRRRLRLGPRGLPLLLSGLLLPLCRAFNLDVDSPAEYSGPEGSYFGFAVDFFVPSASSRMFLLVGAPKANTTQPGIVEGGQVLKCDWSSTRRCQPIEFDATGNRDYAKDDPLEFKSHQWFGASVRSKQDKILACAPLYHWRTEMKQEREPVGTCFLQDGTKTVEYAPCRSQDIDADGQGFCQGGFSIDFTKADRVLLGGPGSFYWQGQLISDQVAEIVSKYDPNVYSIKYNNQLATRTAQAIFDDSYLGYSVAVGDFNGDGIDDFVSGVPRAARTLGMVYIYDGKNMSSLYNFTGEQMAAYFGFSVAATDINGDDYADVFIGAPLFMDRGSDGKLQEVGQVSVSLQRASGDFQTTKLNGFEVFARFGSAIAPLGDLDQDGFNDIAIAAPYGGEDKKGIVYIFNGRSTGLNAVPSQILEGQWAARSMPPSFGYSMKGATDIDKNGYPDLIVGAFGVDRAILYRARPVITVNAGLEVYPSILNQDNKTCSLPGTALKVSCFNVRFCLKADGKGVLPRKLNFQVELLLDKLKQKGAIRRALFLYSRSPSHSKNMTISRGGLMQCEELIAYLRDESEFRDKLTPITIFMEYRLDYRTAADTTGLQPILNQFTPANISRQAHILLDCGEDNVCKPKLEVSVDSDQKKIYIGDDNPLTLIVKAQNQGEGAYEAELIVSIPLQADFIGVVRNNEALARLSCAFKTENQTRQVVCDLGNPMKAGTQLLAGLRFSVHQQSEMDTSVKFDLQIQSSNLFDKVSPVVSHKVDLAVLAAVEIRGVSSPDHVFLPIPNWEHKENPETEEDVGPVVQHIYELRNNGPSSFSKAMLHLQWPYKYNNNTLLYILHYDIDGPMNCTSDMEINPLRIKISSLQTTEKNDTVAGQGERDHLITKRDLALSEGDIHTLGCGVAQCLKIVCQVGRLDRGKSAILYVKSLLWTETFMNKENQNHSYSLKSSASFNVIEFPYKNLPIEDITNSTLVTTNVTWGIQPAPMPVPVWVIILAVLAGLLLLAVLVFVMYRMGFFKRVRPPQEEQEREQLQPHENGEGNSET

Molecular target: BSA (bovine serum albumin) (bovine) (UniProt P02769)
Assay: ELISA; FGF9 (WT or mutant) or BSA alone coated on 96-well plates, blocked with heat-treated BSA; soluble αvβ3 (1 μg/mL) in Tyrode-HEPES buffer with 1 mM Mn2+, 1 h, room temperature; bound αvβ3 detected with anti-β3 (mAb AV10) and HRP anti-mouse IgG; both purified

binding: no binding (tested: 1 μg/mL)
Substance: soluble integrin αvβ3 (extracellular domains) (from UniProt P06756 31-992; P05106 27-718) (receptor)
